From publication PMC3151283
These are yes or no findings as the source states them, for the method shown. In cells and extracts the contact can be indirect. Some entries that bind do so weakly or less than the wild type.

Protein sequences, listed by entry. Tags and fused reporters are not part of them. Residues count along the entry.
UniProt P35222: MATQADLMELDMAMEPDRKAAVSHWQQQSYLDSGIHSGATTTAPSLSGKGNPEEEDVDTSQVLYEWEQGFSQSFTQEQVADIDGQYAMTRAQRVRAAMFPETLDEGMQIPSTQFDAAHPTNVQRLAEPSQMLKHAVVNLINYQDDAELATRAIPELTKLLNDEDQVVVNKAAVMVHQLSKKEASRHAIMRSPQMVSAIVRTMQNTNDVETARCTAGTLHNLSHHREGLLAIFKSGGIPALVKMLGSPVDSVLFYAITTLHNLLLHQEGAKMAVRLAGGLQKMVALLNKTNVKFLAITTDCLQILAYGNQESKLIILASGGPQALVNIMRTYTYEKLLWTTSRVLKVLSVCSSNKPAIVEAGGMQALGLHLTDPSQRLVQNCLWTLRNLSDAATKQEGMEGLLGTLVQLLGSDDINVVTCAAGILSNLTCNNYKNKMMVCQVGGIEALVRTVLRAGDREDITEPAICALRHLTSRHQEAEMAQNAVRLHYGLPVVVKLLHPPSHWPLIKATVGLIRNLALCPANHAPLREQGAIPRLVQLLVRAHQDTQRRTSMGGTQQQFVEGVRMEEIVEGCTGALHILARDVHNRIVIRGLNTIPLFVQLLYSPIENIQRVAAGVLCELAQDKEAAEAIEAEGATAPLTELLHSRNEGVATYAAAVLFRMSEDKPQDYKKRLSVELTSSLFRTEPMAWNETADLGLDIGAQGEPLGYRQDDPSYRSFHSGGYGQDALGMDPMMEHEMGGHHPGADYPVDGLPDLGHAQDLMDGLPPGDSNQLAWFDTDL
UniProt P78310, residues 20-365: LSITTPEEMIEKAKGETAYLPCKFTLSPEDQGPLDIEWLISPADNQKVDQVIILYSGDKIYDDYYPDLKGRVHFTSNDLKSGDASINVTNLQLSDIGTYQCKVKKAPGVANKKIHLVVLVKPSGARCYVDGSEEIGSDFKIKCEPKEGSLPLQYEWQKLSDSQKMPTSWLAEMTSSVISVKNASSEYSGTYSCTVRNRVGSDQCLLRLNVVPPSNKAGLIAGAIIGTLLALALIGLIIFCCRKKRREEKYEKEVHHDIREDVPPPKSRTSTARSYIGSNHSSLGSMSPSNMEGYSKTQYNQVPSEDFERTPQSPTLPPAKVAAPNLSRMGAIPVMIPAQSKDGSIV

Biological target: β-catenin (human (endogenous in MCF7)) (UniProt P35222)
Experiment: co-IP; β-catenin antibody (Santa Cruz) and protein A/G beads from RIPA lysates of MCF7 and FLCARMCF7 cells, 4°C; cells untreated or incubated with Ad5eGFP (9000 VP/cell) or FK (160 µg/ml) for 3 min, 10 min or 6 hours; control IgG; blots probed for E-cadherin and re-probed for CAR

In the case of “full-length human CAR C-terminally tagged with monomeric red fluorescent protein (from UniProt P78310 20-365) (receptor)”, the binding is reported as “binds”.
